The values that follow come from PubChem BioAssay AID651804 (National Center for Advancing Translational Sciences (NCATS), 2012).

Amino acid sequences for entries named in this document (tags omitted). A change or cut given only in a name is not applied to a line headed by its entry.
UniProt P11308: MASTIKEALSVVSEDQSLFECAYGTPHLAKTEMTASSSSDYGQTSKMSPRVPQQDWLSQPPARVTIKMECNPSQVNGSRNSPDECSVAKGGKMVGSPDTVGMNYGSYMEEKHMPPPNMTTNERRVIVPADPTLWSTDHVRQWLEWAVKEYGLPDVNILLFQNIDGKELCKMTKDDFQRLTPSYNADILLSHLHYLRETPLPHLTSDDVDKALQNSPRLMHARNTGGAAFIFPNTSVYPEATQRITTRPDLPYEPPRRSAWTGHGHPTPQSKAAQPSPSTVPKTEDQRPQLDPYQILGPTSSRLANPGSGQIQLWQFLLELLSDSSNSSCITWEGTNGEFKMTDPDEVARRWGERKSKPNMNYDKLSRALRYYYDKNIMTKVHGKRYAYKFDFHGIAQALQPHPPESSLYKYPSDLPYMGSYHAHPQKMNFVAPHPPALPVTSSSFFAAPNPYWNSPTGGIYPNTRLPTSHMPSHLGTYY

Screen size: about 1,200 compounds; about 20 (2%) were called active. Another 23% or so got no clear call; they are omitted. Calls come from the whole dose curve; as a rule, active = well fitted inhibition curve with a large enough effect; inconclusive = small, poorly fitted or top-dose-only effect; inactive = no such curve, though single readings can be large or run the other way. This is one part of the list.

For this assay, the target named is Transcriptional regulator ERG (Homo sapiens) (UniProt P11308). Description: qHTS for Small Molecule Inhibitors of the ERG Ets/DNA interaction: HTRF assay against cherry picks. To be noted: His-ERG Ets domain with biotin-DNA; at 154 µM (top of the series). The source says:
The Ets family of proteins is a family of ~30 conserved transcription factors defined by the presence of an ~85 amino acid domain referred to as the Ets domain, which mediates sequence-specific DNA binding to a core DNA element GGAA/T.The Ets family member ERG has been linked to several neoplasms. […] More extensive studies of the effects of over-expression of ERG in prostate cells have recently been carried out and have shown that over-expression of ERG results in increased invasion. […] We will carry out a high throughout screen to identify inhibitors of the interaction between ERG and DNA using a fluorescence polarization (FP) assay with a His-tagged ERG Ets domain and fluorescently-labeled DNA probes to develop small molecule inhibitors of this interaction as probes to test this hypothesis and lay the groundwork for the development of targeted therapies against ERG. This is the counterscreen against the cherry picks. NIH Molecular Libraries Probe Production Network [MLPCN] NIH Chemical Genomics Center [NCGC] Grant: NS066464 PI Name: John Bushweller, University of Virgina
2 ul of protein solution (200 nM ERG domain in 300mM KCl, 50mM Tris-HCl, 1mM EDTA, 1mM DTT, pH 7.5); 20 nl Control plate and compound library plate; 2 ul of 200 nM biotin-DNA; incubate for 10 min at RT; 1 ul of anti-His antibody conjugated to the long-life fluorescent cryptate donner […] (5ng/ul) and streptavidin conjugated to the acceptor compound […] (0.2 ng/ul) mix; incubate 10 min and measure FRET (Excitation = 320 nm, Emission = 615, 665 nm).
For `CN1[C@@H]2CCC[C@H]1CC(=O)C2`, the activity change, negative = inhibition is inactive: -23.7%. For the molecule `COc1cc(C[C@@H](C)N)c(OC)cc1I`, the activity change, negative = inhibition is inactive: -31.3%. In the case of `C[C@]12CCC(=O)C[C@@H]1CC[C@@H]1[C@@H]2CC[C@]2(C)[C@@H](O)CC[C@@H]12`, the activity change, negative = inhibition is inactive: -19.5%. Next, `COC(=O)NC(=C(Cl)Cl)P(=O)(c1ccccc1)c1ccccc1`: inactive: -23.8%. Regarding `O=C(Cc1ccccc1)Oc1ccc([N+](=O)[O-])cc1`, the activity change, negative = inhibition was inactive: -15.5%. Next, `O=C(COc1ccccc1)NCCc1cnc[nH]1`: inactive: -29%.

For the molecule `C[N+]1(C)[C@@H]2CC[C@H]1CC(OC(=O)C(CO)c1ccccc1)C2` (some centres undefined), the activity change, negative = inhibition was inactive: -26.6%. Next, `CC(=O)C1(c2ccccc2)CCN(C(=O)C2CCC(=O)N(CCc3cccc(F)c3)C2)CC1` (centres undefined): inactive: -19.4%; `CC(=O)N1CC(=O)Nc2ccc(F)cc2C1c1ccccc1` (centres undefined): inactive: 4.99%; `C[C@]12CCC(=O)C=C1CC[C@@H]1[C@@H]2CC[C@@]2(C)[C@H]1CC[C@]2(C)O`: inactive: -25.7%.

As for `COc1ccc(C(c2ccc(OC)cc2)C(Cl)(Cl)Cl)cc1`, the activity change, negative = inhibition is inactive: -6.95%. Next, `COc1ccc2[nH]c(C)c(CCNCc3cccnc3)c2c1`: inactive: -9.44%. Next, `O=c1c2ccccc2nc(-c2ccco2)n1-c1ccccc1`: inactive: -33.5%; `O=C(CCc1nnc2ccc(NCc3ccccc3Cl)nn12)N1CCC2(CC1)OCCO2`: inactive: -24.1%. `COc1cccc(-n2c(/C=C/c3cccc(C)c3)nc3ccccc3c2=O)c1`: the activity change, negative = inhibition was inactive: -27.6%.

Consider `N#CCN1CCN(c2ccc(C(F)(F)F)cc2)CC1`, for which the activity change, negative = inhibition is inactive: -12.9%. For `Cc1ccc(-c2nc3ccccc3c(=O)n2-c2cccc(O)c2)cc1`, the activity change, negative = inhibition was inactive: -28.1%. Next, `CN1C[C@@H]2C[C@@H](c3cccn3-c3ccccn3)N3CCC[C@@]23C1=O`: inactive: -0.477%; `NC(=O)Cn1cc(C=C2C(=O)NC(=O)NC2=O)c2ccccc21`: inactive: -4.93%.
